The source of these data is article PMC12114750 (Pharmaceuticals, 2025).

For this experiment, the system named is FL83B hepatocytes. In words: Cytotoxicity (in vitro hepatotoxicity) MTT assay, FL83B. Format: cell-based. The settings on record: Mus musculus, 24 h, normal murine hepatocytes. As to the method: Hepatocyte cells (FL83B; ATCC: CLR-2390) were cultured in F-12K medium. Human neuroblastoma (SH-SY5Y; ATCC: CRL-2266) cells were cultivated in DMEM/F12 medium. All media were supplemented with fetal bovine serum (10%) (Biowest, Riverside, MO, USA) and 1% antibiotic/antimycotic solution (Biowest, Nuaill’e, France).
Cells were seeded at an appropriate density to promote optimal growth, and the culture medium was replaced every 48 h. Once cells reached 80–90% confluence, subculture was performed using 0.25% trypsin-EDTA to dissociate the cells, by 2 min and put inside of chamber during 5 min, according to the protocol provided by the biobanks. […]
Cells were seeded in 96-well plates (HepG-2: 2.5 ×10^4 cells; HCT-15: 2.5 × 10^4 cells/mL; MCF-7: 2.5 × 10^4 cells/mL; SH-SY5Y: 5.0 × 10^4 cells/mL; FL83B: 5.0 × 10^4 cell/mL; DU-145: 5.0 × 10^4 cell/mL). […] Cell viability was assessed using MTT assay. […] After incubation, the intracellular formazan crystals were solubilized with 100 μL DMSO and, after […], the absorbance was measured at 570 nm using a microplate reader (Synergy H1). […] Results were expressed as a percentage of control untreated cells and the half-maximal inhibitory concentration (IC50) values were determined using nonlinear regression analysis (GraphPad Prism, 8.1, GraphPad Software, San Diego, CA, USA).
In general terms: Tetrazolium dyes change colour on reduction, which living cells bring about.

In the case of `CC/C(=C(\c1ccccc1)c1ccc(OCCN(C)C)cc1)c1ccccc1` [Tamoxifen, reference compound], the IC50 is 19.5 µM.

One may read the IC50 as the midpoint of a concentration-inhibition curve.
